The subject of the assay is CD2F1 mice, L1210 leukemia ip, survival T/C. Put plainly: NCI In Vivo Anticancer Drug Screen. Data for tumor model L1210 Leukemia (intraperitoneal) in CD2F1 (CDF1) mice. The following applies: higher T/C = longer survival. Summed up: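 Mice carrying a transplanted tumor received test compound or vehicle alone. The value is the measurement in the treated group divided by that in the vehicle-treated control group.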

[1] abbreviates: T/C endpoint: median survival time, dose: 200.0 mg/kg/injection, schedule: Q01DX005 (ip), vehicle: sodium bicarbonate.
[2] abbreviates: T/C endpoint: median survival time, dose: 400.0 mg/kg/injection, schedule: Q01DX005 (ip), vehicle: sodium bicarbonate.
Where [3] appears, read: T/C endpoint: mean survival time, dose: 200.0 mg/kg/injection, schedule: Q01DX009 (ip), vehicle: saline with Tween-80.
Where [4] appears, read: T/C endpoint: mean survival time, dose: 400.0 mg/kg/injection, schedule: Q01DX009 (ip), vehicle: saline with Tween-80.

The list shows only some results of the screen, not a fair sample: it is rich in T/C values a quarter to a half above the control, in often repeated tests (any T/C) and in doses without a T/C. Other doses and runs of a compound stand elsewhere. T/C: endpoint of the treated group in % of that of the vehicle group. Some entries give survivors of the animals treated and no T/C: the source files T/C as zero there, which appears to mark a toxic dose or a test without result, not a measured value. Some doses without a T/C left all or most animals alive at the check, yet need not have been tolerated: the source hardly ever lists a survival T/C far under the control, and the zero likely stands for such cases as well. Counts of survivors are from the toxicity check (mostly the fifth day) where no day follows; animals may have died later. Schedule codes are those of the source, taken here to give the interval after Q, in days (D) or hours (H), and the number of doses after X. Some entries were tested several times; the values are given in rising order. For survival time, the PubChem record calls one and a half times the control and up active, and a quarter to a half above the control has no call in these data; cut-offs in other NCI protocols can differ. Some T/C values carry the count of animals alive at the toxicity check (mostly the fifth day); without a count, all were alive then.

Eleven molecules from PubChem BioAssay AID256 (DTP/NCI, 2004) can be followed below.

As for `Cc1c(-c2ccc(C3CCCCC3)cc2)nc2ccc(F)cc2c1C(=O)O`, the T/C reads like this: (T/C endpoint: median survival time, dose: 12.5 mg/kg/injection, schedule: Q01DX005 (ip), vehicle: sodium bicarbonate) 127 % of control; (T/C endpoint: median survival time, dose: 25.0 mg/kg/injection, schedule: Q01DX005 (ip), vehicle: sodium bicarbonate) 128 % of control; (T/C endpoint: median survival time, dose: 25.0 mg/kg/injection, schedule: Q01DX009 (ip), vehicle: Klucel (hydroxypropylcellulose) (HPC)) 136 % of control; (T/C endpoint: median survival time, dose: 25.0 mg/kg/injection, schedule: Q01DX009 (ip), vehicle: saline with Tween-80, evaluated on day 20) 132 % of control; (T/C endpoint: median survival time, dose: 25.0 mg/kg/injection, schedule: Q01DX009 (ip), vehicle: saline with Tween-80, evaluated on day 30) 125 and 127 % of control; (T/C endpoint: median survival time, dose: 25.0 mg/kg/injection, schedule: Q01DX009 (ip), vehicle: saline with Tween-80, evaluated on day 32) 117 % of control [5 of 6 alive]. The T/C runs as follows: (T/C endpoint: median survival time, dose: 25.0 mg/kg/injection, schedule: Q01DX009 (ip), vehicle: saline with Tween-80, evaluated on day 60) 136 % of control; (T/C endpoint: median survival time, dose: 50.0 mg/kg/injection, schedule: Q01DX005 (ip), vehicle: Klucel (hydroxypropylcellulose) (HPC)) 131 % of control [5 of 6 alive]; (T/C endpoint: median survival time, dose: 50.0 mg/kg/injection, schedule: Q01DX009 (ip), vehicle: Klucel (hydroxypropylcellulose) (HPC)) 149 % of control; (T/C endpoint: median survival time, dose: 50.0 mg/kg/injection, schedule: Q01DX009 (ip), vehicle: saline with Tween-80, evaluated on day 20) 139 % of control; (T/C endpoint: median survival time, dose: 50.0 mg/kg/injection, schedule: Q01DX009 (ip), vehicle: saline with Tween-80, evaluated on day 30) 116 [2 of 3 alive] and 128 % of control; (T/C endpoint: median survival time, dose: 50.0 mg/kg/injection, schedule: Q01DX009 (ip), vehicle: saline with Tween-80, evaluated on day 32) 121 % of control. Besides, the T/C (T/C endpoint: median survival time, dose: 50.0 mg/kg/injection, schedule: Q01DX009 (ip), vehicle: saline with Tween-80, evaluated on day 35) was 147 % of control; the T/C (T/C endpoint: median survival time, dose: 50.0 mg/kg/injection, schedule: Q01DX009 (ip), vehicle: saline with Tween-80, evaluated on day 60) is 156 % of control; the T/C (T/C endpoint: median survival time, dose: 100.0 mg/kg/injection, schedule: Q01DX005 (ip), vehicle: Klucel (hydroxypropylcellulose) (HPC)) is 132 % of control; the T/C (T/C endpoint: median survival time, dose: 100.0 mg/kg/injection, schedule: Q01DX005 (ip), vehicle: sodium bicarbonate) is 130 % of control [4 of 6 alive]; the T/C (T/C endpoint: median survival time, dose: 100.0 mg/kg/injection, schedule: Q01DX009 (ip), vehicle: saline with Tween-80, evaluated on day 20) was 168 % of control; the T/C (T/C endpoint: median survival time, dose: 100.0 mg/kg/injection, schedule: Q01DX009 (ip), vehicle: saline with Tween-80, evaluated on day 30) was 128 and 144 % of control. In addition, the T/C is 133 % of control (T/C endpoint: median survival time, dose: 100.0 mg/kg/injection, schedule: Q01DX009 (ip), vehicle: saline with Tween-80, evaluated on day 32); 161 % of control (T/C endpoint: median survival time, dose: 100.0 mg/kg/injection, schedule: Q01DX009 (ip), vehicle: saline with Tween-80, evaluated on day 35); 189 % of control (T/C endpoint: median survival time, dose: 100.0 mg/kg/injection, schedule: Q01DX009 (ip), vehicle: saline with Tween-80, evaluated on day 60); 132 % of control (T/C endpoint: median survival time, dose: 200.0 mg/kg/injection, schedule: Q01DX005 (ip), vehicle: Klucel (hydroxypropylcellulose) (HPC)); 125 and 127 % of control [5 of 6 alive] under setting [1]; 179 % of control (T/C endpoint: median survival time, dose: 200.0 mg/kg/injection, schedule: Q01DX009 (ip), vehicle: saline with Tween-80, evaluated on day 20). In addition, the T/C (T/C endpoint: median survival time, dose: 200.0 mg/kg/injection, schedule: Q01DX009 (ip), vehicle: saline with Tween-80, evaluated on day 30) is 151 and 161 % of control; the T/C (T/C endpoint: median survival time, dose: 200.0 mg/kg/injection, schedule: Q01DX009 (ip), vehicle: saline with Tween-80, evaluated on day 32) was 155 % of control [5 of 6 alive]; the T/C (T/C endpoint: median survival time, dose: 200.0 mg/kg/injection, schedule: Q01DX009 (ip), vehicle: saline with Tween-80, evaluated on day 35) is 162 % of control; the T/C (T/C endpoint: median survival time, dose: 200.0 mg/kg/injection, schedule: Q01DX009 (ip), vehicle: saline with Tween-80, evaluated on day 60) is 189 % of control; the T/C under setting [2] was 134 % of control [5 of 6 alive]; the T/C (T/C endpoint: median survival time, dose: 400.0 mg/kg/injection, schedule: Q01DX009 (ip), vehicle: saline with Tween-80, evaluated on day 20) was 181 % of control [5 of 6 alive]. Also, the T/C was 167 % of control (T/C endpoint: median survival time, dose: 400.0 mg/kg/injection, schedule: Q01DX009 (ip), vehicle: saline with Tween-80, evaluated on day 30); 111 % of control [5 of 6 alive] (T/C endpoint: median survival time, dose: 400.0 mg/kg/injection, schedule: Q01DX009 (ip), vehicle: saline with Tween-80, evaluated on day 32); 197 % of control (T/C endpoint: median survival time, dose: 400.0 mg/kg/injection, schedule: Q01DX009 (ip), vehicle: saline with Tween-80, evaluated on day 35); 184 % of control (T/C endpoint: median survival time, dose: 400.0 mg/kg/injection, schedule: Q01DX009 (ip), vehicle: saline with Tween-80, evaluated on day 60). The survivor count runs as follows: under setting [1], 3 of 6; under setting [2], 0 of 6 and 3 of 6; (T/C endpoint: median survival time, dose: 400.0 mg/kg/injection, schedule: Q01DX009 (ip), vehicle: saline with Tween-80) 2 of 3; (T/C endpoint: median survival time, dose: 800.0 mg/kg/injection, schedule: Q01DX005 (ip), vehicle: sodium bicarbonate) 0 of 6.
Turning to `CC(=O)Nc1ccc2nc3ccc(NC(C)=O)cc3[n+](-c3ccccc3)c2c1`, the T/C is 138 % of control (T/C endpoint: mean survival time, dose: 25.0 mg/kg/injection, schedule: Q01DX007 (ip), vehicle: saline); 130 % of control (T/C endpoint: mean survival time, dose: 25.0 mg/kg/injection, schedule: Q01DX009 (ip), vehicle: saline); 126 % of control (T/C endpoint: mean survival time, dose: 50.0 mg/kg/injection, schedule: Q03DX003 (ip), vehicle: saline); 137 % of control (T/C endpoint: mean survival time, dose: 50.0 mg/kg/injection, schedule: Q04DX003 (ip), vehicle: saline); 134 % of control (T/C endpoint: mean survival time, dose: 100.0 mg/kg/injection, schedule: Q03DX003 (ip), vehicle: saline); 138 % of control (T/C endpoint: mean survival time, dose: 100.0 mg/kg/injection, schedule: Q04DX003 (ip), vehicle: saline).
In the case of `CCCNCCN(CC)CC`, for the setting “T/C endpoint: mean survival time, dose: 400.0 mg/kg/injection, schedule: Q04DX003 (ip), vehicle: saline”, the survivor count is reported as 5 of 6.
As for `CCOC(=O)C1C(=O)N(C)C(=O)N1C` (configuration not stated), the survivor count (T/C endpoint: mean survival time, dose: 18.8 mg/kg/injection, schedule: Q01DX009 (ip), vehicle: water) is given as 6 of 6.
For the molecule `CN(CCO)C1=C(N2CC2)C(=O)C(N(C)CCO)=C(N2CC2)C1=O`, the T/C (T/C endpoint: mean survival time, dose: 1.0 mg/kg/injection, schedule: Q01DX009 (ip), vehicle: saline) is 145 % of control.
On to `COc1cccc(NC2=NCCO2)c1`, for which, where the note is “T/C endpoint: mean survival time, dose: 400.0 mg/kg/injection, schedule: Q04DX003 (ip), vehicle: saline with Tween-80”, the survivor count is listed as 2 of 6.
On to `CCN(CC)CCN1Cc2ccccc2C1`, for which the survivor count by setting is: under setting [3], 0 of 6; under setting [4], 0 of 6.
With `COc1cc([N+](=O)[O-])ccc1NC(=O)Nc1nccs1`, the T/C (T/C endpoint: mean survival time, dose: 100.0 mg/kg/injection, schedule: Q01DX009 (ip), vehicle: saline with Tween-80) is listed as 97, 98, 104, 114 % of control. Besides, the survivor count under setting [4] is recorded as 3 of 3.
In the case of `S=C(NNC(=S)Nc1ccc(Cl)cc1)NNc1ccccc1`, the survivor count (T/C endpoint: mean survival time, dose: 200.0 mg/kg/injection, schedule: Q01DX009 (ip), vehicle: acetone) is given as 2 of 6.
Regarding `N#CC(C#N)=CN1CCCC1`, the survivor count is 0 of 6 (T/C endpoint: mean survival time, dose: 100.0 mg/kg/injection, schedule: Q01DX001 (ip), vehicle: saline with Tween-80); 0 of 6 (T/C endpoint: mean survival time, dose: 200.0 mg/kg/injection, schedule: Q01DX001 (ip), vehicle: saline with Tween-80); 0 of 6 (T/C endpoint: mean survival time, dose: 400.0 mg/kg/injection, schedule: Q01DX001 (ip), vehicle: saline with Tween-80).
`CCC(=O)Nc1ncc([N+](=O)[O-])s1`: under setting [3], the survivor count is 2 of 3.
